No constants are given. Whether binding was seen depends on the method and setting. Binding seen in cells or lysates may run through a third protein.

Chains of the proteins cited; added tags and fusions are not shown.
UniProt Q60631: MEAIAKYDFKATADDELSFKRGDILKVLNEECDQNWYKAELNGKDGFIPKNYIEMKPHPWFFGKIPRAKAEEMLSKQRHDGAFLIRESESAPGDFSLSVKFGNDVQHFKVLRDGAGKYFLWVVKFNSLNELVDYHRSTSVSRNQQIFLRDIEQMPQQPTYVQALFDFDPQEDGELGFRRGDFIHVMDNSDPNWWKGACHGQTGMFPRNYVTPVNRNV
UniProt P42859: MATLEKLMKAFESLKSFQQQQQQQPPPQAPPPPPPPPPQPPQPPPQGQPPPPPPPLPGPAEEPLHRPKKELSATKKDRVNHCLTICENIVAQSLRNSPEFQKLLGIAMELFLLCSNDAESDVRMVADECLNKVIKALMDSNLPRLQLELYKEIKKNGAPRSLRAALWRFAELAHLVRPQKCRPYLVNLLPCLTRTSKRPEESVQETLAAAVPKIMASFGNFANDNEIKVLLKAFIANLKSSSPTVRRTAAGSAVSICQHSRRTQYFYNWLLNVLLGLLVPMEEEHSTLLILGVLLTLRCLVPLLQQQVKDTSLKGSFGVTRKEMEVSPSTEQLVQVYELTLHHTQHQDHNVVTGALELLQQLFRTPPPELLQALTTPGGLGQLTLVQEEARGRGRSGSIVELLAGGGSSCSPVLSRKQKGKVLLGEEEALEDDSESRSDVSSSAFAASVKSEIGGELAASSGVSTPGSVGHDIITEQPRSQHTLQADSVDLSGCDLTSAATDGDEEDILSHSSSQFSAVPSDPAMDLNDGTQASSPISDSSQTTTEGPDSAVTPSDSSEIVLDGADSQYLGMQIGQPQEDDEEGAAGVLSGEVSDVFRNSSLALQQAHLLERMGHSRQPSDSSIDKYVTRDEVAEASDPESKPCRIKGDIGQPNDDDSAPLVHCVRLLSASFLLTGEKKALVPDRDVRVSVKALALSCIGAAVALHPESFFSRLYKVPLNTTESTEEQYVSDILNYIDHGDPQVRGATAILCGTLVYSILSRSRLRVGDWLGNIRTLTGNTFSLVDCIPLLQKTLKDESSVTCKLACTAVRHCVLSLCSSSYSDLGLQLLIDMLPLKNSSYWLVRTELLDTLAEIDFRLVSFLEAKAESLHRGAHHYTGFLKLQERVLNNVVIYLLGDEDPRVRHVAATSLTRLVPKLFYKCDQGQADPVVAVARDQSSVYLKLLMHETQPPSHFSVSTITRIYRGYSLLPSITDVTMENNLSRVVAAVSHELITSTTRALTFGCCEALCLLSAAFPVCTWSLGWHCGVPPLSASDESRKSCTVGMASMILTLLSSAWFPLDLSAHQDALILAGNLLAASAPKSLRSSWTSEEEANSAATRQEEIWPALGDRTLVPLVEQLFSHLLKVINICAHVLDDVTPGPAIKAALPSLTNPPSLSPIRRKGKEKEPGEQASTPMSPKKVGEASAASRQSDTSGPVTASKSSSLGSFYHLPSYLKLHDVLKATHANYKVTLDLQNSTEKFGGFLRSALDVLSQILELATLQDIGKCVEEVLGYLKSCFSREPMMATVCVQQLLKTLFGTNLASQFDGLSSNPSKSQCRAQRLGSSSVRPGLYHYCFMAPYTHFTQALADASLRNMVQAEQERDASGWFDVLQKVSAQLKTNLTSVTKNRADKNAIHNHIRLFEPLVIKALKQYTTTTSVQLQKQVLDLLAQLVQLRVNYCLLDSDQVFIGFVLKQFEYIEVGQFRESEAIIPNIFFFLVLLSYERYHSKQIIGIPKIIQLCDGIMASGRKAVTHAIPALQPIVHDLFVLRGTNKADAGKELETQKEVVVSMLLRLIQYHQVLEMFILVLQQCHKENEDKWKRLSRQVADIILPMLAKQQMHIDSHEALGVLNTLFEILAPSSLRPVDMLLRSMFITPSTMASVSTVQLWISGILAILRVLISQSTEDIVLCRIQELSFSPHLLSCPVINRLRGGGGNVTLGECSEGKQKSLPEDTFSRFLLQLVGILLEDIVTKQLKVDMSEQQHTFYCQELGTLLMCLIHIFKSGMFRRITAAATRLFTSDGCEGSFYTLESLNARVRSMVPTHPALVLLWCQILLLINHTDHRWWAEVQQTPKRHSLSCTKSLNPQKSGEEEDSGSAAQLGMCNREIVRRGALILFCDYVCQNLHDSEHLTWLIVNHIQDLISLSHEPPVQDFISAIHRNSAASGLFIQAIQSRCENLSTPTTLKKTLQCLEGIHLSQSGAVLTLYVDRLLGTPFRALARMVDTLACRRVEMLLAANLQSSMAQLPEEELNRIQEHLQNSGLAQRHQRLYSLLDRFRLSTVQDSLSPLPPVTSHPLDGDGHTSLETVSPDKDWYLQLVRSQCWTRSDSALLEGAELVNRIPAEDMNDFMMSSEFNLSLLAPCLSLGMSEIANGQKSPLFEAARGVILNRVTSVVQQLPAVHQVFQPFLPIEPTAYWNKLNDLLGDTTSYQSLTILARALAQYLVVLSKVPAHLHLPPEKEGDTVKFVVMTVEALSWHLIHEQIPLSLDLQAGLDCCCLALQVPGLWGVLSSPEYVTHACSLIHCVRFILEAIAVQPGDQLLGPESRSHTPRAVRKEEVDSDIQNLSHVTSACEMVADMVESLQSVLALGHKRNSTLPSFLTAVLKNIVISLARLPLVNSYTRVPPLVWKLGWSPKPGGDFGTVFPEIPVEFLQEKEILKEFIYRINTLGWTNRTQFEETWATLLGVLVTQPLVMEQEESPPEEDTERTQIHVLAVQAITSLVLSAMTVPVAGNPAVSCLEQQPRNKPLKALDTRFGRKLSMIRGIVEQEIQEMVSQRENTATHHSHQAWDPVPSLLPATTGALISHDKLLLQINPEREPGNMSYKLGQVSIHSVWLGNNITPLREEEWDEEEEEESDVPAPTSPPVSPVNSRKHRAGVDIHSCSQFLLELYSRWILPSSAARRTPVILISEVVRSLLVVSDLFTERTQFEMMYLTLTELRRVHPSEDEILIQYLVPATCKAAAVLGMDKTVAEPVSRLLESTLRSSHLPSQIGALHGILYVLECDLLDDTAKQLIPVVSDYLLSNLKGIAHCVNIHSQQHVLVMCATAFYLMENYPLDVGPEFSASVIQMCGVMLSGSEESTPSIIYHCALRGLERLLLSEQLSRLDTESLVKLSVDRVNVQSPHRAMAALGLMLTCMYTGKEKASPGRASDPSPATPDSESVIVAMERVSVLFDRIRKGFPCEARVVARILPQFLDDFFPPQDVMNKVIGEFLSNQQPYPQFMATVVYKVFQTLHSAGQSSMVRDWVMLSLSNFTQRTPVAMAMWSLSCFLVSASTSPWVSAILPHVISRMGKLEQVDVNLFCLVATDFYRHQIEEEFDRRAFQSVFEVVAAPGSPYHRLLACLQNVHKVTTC

Here are results for two substances from article PMC3792889.

Test [1] concerns the target Growth factor receptor protein binding protein 2 (Grb2), endogenous (mouse (endogenous in STHdhQ7/7, STHdhQ111/111 and Neuro2A cells)) (UniProt Q60631). Nature of the test: co-IP; whole cell extracts of STHdhQ7/7 and STHdhQ111/111 cells; 200 ug extract incubated overnight with anti-Grb2 antibody and Protein A/G beads; blot with anti-Htt (6% SDS-PAGE).
For test [2], the target named is full-length wild type HTT with 7Q (endogenous, STHdhQ7/7 cells) (mouse (endogenous in STHdhQ7/7)) (UniProt P42859). Nature of the test: co-IP; reverse: whole cell extracts of STHdhQ7/7 and STHdhQ111/111 cells; 200 ug extract incubated overnight with anti-Htt antibody and Protein A/G beads; blot with anti-Grb2 (12% SDS-PAGE).

For the substance “full-length wild type HTT with 7Q (endogenous, STHdhQ7/7 cells) (from UniProt P42859 1-3119)”, the binding entry in test [1] is listed as “no binding”.
As to “Growth factor receptor protein binding protein 2 (Grb2), endogenous (from UniProt Q60631 1-217)”, the binding result in test [2] is “no binding”.
